Source: PubChem BioAssay AID1259354 (Paczesny and Yang Labs, IUPUI and University of Michigan, 2018)
The whole screen tested about 78,000 compounds, of which about 1,800 (2.3%) were called active. This list was built around the results that the source calls inconclusive (neither active nor inactive); the mix of calls is not that of the screen. No stated cut-off is given here; in the data, active means inhibition above about 30%; inconclusive means mostly about 10% to 28%; inactive means weaker than that.

The chains behind the UniProt entries cited, without tags or fusion partners. Where a name states a change or a piece, a line headed by the entry shows the natural chain unless it says otherwise.
UniProt Q01638: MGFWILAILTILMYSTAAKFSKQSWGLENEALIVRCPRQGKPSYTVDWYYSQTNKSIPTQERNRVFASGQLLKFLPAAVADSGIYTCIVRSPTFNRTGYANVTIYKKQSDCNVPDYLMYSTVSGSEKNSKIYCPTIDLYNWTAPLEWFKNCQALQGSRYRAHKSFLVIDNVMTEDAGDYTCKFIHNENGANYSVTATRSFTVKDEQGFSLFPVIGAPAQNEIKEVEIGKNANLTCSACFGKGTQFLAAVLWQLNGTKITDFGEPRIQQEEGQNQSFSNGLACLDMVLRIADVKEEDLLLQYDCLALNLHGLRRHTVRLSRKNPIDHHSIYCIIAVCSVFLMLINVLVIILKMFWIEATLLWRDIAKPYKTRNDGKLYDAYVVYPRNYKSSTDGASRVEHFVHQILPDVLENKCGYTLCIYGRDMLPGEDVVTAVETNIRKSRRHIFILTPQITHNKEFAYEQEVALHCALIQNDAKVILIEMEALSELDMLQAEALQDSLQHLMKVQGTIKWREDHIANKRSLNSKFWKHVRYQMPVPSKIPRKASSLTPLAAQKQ

Target: Interleukin-1 receptor-like 1 (Homo sapiens) (UniProt Q01638)
Assay: blocks human ST2 binding to IL-33, primary screen, biochemical, AlphaLISA (AID 1259354)
Details: AlphaLISA ST2-Fc/biotin-IL-33 interaction, 1 h; at 17 µM, stronger effect = higher value

SMILES	inhibition
Cn1ncc2c(NCCN3CCOC3=O)nc(C(C)(C)C)nc21	inconclusive: 16%
Cc1c(C(=O)NCc2ccco2)oc2ccc(S(=O)(=O)N3CC(C)CC(C)C3)cc12 (centres undefined)	inactive
Cc1ncsc1C(=O)N1CCOC(Cc2cccc(C(F)(F)F)c2)C1 (centres undefined)	inactive
O=C(c1cncc(N2C[C@@H]3[C@@H]4CC[C@@H](C4)[C@@H]3C2)n1)N1CCCC1	inconclusive: 10%
Nc1nc(NCc2ccccc2)nc(-c2cccc(O)c2)n1	inactive
CC(=O)c1ccc(NC(=O)c2noc3c2CCCCC3)cc1	inconclusive: 10%
COc1ccccc1NC(=O)CSc1nc(-c2cccs2)cc(C(F)(F)F)c1C#N	inconclusive: 24%
Cc1cc(C)c(S(N)(=O)=O)c(C)c1	inactive
CS(=O)(=O)c1ccc2nc(NC(=O)c3ccccc3[N+](=O)[O-])sc2c1	inactive
O=C1CN(S(=O)(=O)NCc2ccccc2)CCN1C1CCCC1	inconclusive: 17%
O=C(O)c1ccc(CN2C[C@H](O)C[C@H]2c2nc(-c3cccc([N+](=O)[O-])c3)no2)cc1	inactive
CN(C)c1ccc(C(=O)Nc2ccc(-c3nc4ccccc4o3)cc2)cc1	inconclusive: 18%
O=C(NCc1ccccc1)c1ccc2nc3c(cc2c1)CCS3	inactive
COc1ccccc1NCC(=O)c1ccc(C)c(C)c1	inconclusive: 21%
CC(=O)N[C@H]1C[C@@H](CC(C)C)O[C@@H](CCc2ccccc2)C1	inconclusive: 11%
COc1cc(CN2CCCC(OCc3cccnc3)C2)cc(Cl)c1O (centres undefined)	inconclusive: 11%
O=C(C1CC1)N1CCc2cc(S(=O)(=O)N3CCCCC3)ccc21	inconclusive: 15%
Cc1ccccc1CN(C)C1CCN(C)CC1	inconclusive: 13%
O=C(Cn1cnc2c(cnn2-c2ccccc2)c1=O)N1CCN(c2ccccc2)CC1	inactive
C=CC[C@]12C[C@@H](OC)C(=O)C(OC)=C1O[C@@H](c1cc(OC)c3c(c1)OCO3)[C@@H]2C	inconclusive: 11%
Cn1ncc([N+](=O)[O-])c1C(=O)Nc1ccc(I)cc1	inactive
CN1CCC(N(Cc2ccncc2)C(=O)Nc2ccc3c(c2)OCO3)CC1	inconclusive: 17%
Clc1cccc(N2CCN(Cc3ccsc3)CC2)c1	inactive
CCC(C)NC(=O)c1noc2c1CCCC2 (centres undefined)	inactive

SMILES	inhibition
Nc1nonc1-c1nc2ccccc2n1CC(=O)Nc1ccc(OC(F)(F)Cl)cc1	inconclusive: 12%
O=C1/C(=C\c2cccc([N+](=O)[O-])c2)N=C2CCCCCN12	active: 36%
CCOC(=O)c1sc2nc(C)n(Cc3ccccc3C)c(=O)c2c1C	inactive
CCOC(=O)C1C(=O)C=C(c2ccco2)CC1c1ccccc1Cl (centres undefined)	inconclusive: 23%
O=C(O)C1CC=C(Cl)CC1C(=O)Nc1cc([N+](=O)[O-])ccc1O (centres undefined)	inactive
CCS(=O)(=O)NCc1nc2cccnc2n1Cc1ccc(C)cc1	inconclusive: 11%
CC(=O)N1N=C(c2ccco2)CC1c1cc2ccc(C)cc2nc1Cl (centres undefined)	inconclusive: 17%
CCOC(=O)c1cccc(NC(=O)N[C@H]2CO[C@H]3[C@@H]2OC[C@H]3OC(=O)Nc2ccccc2)c1	inactive
CC1CCCCN1S(=O)(=O)c1cc(Br)cc2c1N(C(=O)C1CC1)CC2 (centres undefined)	inactive
COc1ccc(CC2(CO)CCN(Cc3cccn3-c3ccc(Cl)cn3)CC2)cc1	inconclusive: 10%
CCN(CCCNC(=O)c1cc2cc3ccc(Cl)cc3nc2o1)Cc1ccccc1	inactive
COCC(=O)N[C@H]1C[C@H]2C(=O)Nc3ccc(-c4ccsc4)cc3C(=O)N2C1	inconclusive: 17%
CCOC(=O)Cn1c(=O)c(-c2cc(Br)ccc2NC)nc2cc3ccccc3cc21	inconclusive: 11%
Cc1cnn(Cc2ccccc2Cl)c1NC(=O)c1ncc(F)cc1F	inconclusive: 14%
CC1=C(n2cnc([N+](=O)[O-])n2)C(c2ccccc2)C(C#N)=C(N)O1 (centres undefined)	inconclusive: 18%
O[C@@H]1C[C@@H](c2nc(-c3ccc4c(c3)OCO4)no2)N(C2CCCCC2)C1	inconclusive: 21%
Cc1[nH]c2ccccc2c1SCCNC(=O)C(C)(C)Oc1ccc(Cl)cc1	inactive
COc1ccc(/C=C2/SC(=O)N(CCc3nnc(N)s3)C2=O)cc1	inconclusive: 19%
CCOCCn1nc(C)cc1C(=O)N1CCNCC1C(=O)N1CCCC1 (centres undefined)	inactive
CCc1ccc(OC(=O)Cn2cnc3sc4c(c3c2=O)CCCC4)cc1	inactive
CC(=O)c1sc(NC(=O)c2ccco2)nc1C	inactive
C=CCOc1ccc(C=Nc2ccc(Cl)cc2)cc1	inactive
O=C1NC(=O)/C(=C\c2ccccc2C(F)(F)F)S1	inconclusive: 12%
CC1CCCCN1CCNC(=O)COc1ccc2c(c1)C(=O)CC(C)(C)O2 (centres undefined)	inactive

Ordered by count of non-hydrogen atoms (smallest number first): part of the list above.
SMILES	inhibition
CCOC(=O)C1C(=O)C=C(c2ccco2)CC1c1ccccc1Cl (centres undefined)	inconclusive: 23%
Cc1cnn(Cc2ccccc2Cl)c1NC(=O)c1ncc(F)cc1F	inconclusive: 14%
CN(C)c1ccc(C(=O)Nc2ccc(-c3nc4ccccc4o3)cc2)cc1	inconclusive: 18%
CCN(CCCNC(=O)c1cc2cc3ccc(Cl)cc3nc2o1)Cc1ccccc1	inactive

(continued)

SMILES	inhibition
CN(CCCNc1ccc([N+](=O)[O-])cc1[N+](=O)[O-])c1ccc(Cl)nn1	inconclusive: 15%
Cc1ccc(-c2c(C)n([O-])c3c([n+]2=O)CCCC3)o1	inconclusive: 11%
CCOC(=O)c1c(-c2ccccc2)oc2ccc(Oc3c([N+](=O)[O-])ncn3C)cc12	inconclusive: 15%
Cc1cc(Nc2ccccc2)nc(Nc2ccc(NC(=O)CC(C)C)cc2)n1	inconclusive: 16%
Oc1c(C=NC2CCCCC2)[nH]c2ccc(Br)c(Cl)c12	active: 45%
COC(=O)C1=C(C)OC(N)=C(C#N)C1c1c(F)cccc1Cl (centres undefined)	inconclusive: 18%
CC(C)c1nc(C(=O)N2CC[C@@H](c3ccc4c(c3)OCO4)[C@H](O)C2)cs1	inconclusive: 14%
CCc1ccc(N(CC(=O)NC2CCCCC2)S(C)(=O)=O)cc1	inconclusive: 22%
CN(C)c1ccc(-c2nc3cnccn3c2Nc2ccc3c(c2)OCCO3)cc1	inconclusive: 18%
COc1ccc(-n2c(C)nc3c(cnn3-c3ccc(Cl)cc3)c2=O)cc1Cl	inconclusive: 17%
COC(=O)c1c2c(nc3ccccc13)CCC2	inconclusive: 23%
CN1C(=O)N(CCc2ccccc2)C(=O)C12CCN(Cc1ccc(-c3ccccc3)cc1)CC2	inactive
CC(=O)N1N=C(c2ccccc2)OC12CCCCCCC2	inconclusive: 18%
CC(C)=C(NC(=O)c1ccccc1)C(=O)Nc1cccc(C)c1	inconclusive: 10%
COC(=O)CC1C(=O)NCCN1Cc1nc2c(C)c(C)ccc2[nH]1 (centres undefined)	inconclusive: 12%
COc1ccc(CCC(C)NCc2ccc(OC)cc2OC)cc1 (centres undefined)	inconclusive: 17%
Cc1ccc2c(c1)N(C(C)C(=O)N1CCCC1)C(=O)CO2 (centres undefined)	inconclusive: 10%
O=C(c1cn2c(n1)CNCC2)N1C[C@@H]2C[C@H](C1)[C@@H]1CCCC(=O)N1C2	inactive
Clc1ccc(-c2ncnn2-c2ccc(Br)nc2)cc1	inconclusive: 14%
COc1ccc(N=Cc2ccc(Oc3ccc([N+](=O)[O-])cc3[N+](=O)[O-])c(OC)c2)cc1	active: 34%
O=C(O)c1c[nH]c2ccc(S(=O)(=O)N3CCN(c4ccccc4F)CC3)cc2c1=O	inactive
CCCCCC(=O)N1CC[C@@H](CC(=O)O)[C@@H](CC2=NCCc3cc(F)ccc32)C1	inconclusive: 14%
CCn1nc(CC(C)C)cc1C(=O)N(C)CC1CCN(CCc2ccc(Cl)cc2)CC1	inconclusive: 13%
COc1ccc([N+](=O)[O-])cc1NC(=O)c1ccc(C)c(Cl)c1	inactive

SMILES	inhibition
CCCn1cnc2cc(NCc3cccs3)ccc21	inactive
C=CCN(c1nc(C)c(Cl)c(OC)n1)S(=O)(=O)c1ccc(C)cc1	inconclusive: 12%
COc1ccccc1N=Cc1[nH]c2ccc(Br)c(Cl)c2c1O	inconclusive: 18%
NC(=O)CSc1nc2c(sc3ccccc32)c(=O)n1CCc1c[nH]c2ccccc12	inconclusive: 13%
CNC(=O)c1ccc(Cn2c(=O)c3cc(OC)c(OC)cc3n(CC(=O)NCC3CCCO3)c2=O)cc1 (centres undefined)	inconclusive: 12%
O=C(NC1CCC(n2cnnc2)CC1)c1ccc(C2CCCO2)s1 (centres undefined)	inconclusive: 11%
CCc1ncc(C(=O)N(Cc2cccnc2)Cc2cccnc2)cn1	inconclusive: 19%
Cc1ccn2c(=O)cc(COc3cccc(NC(=O)COc4ccc(F)cc4)c3)nc2c1	inconclusive: 12%
O=C(N=C1SCC(=O)N1c1ccccc1)c1ccccc1	inconclusive: 11%
COc1ccc(/C(N)=N\OC(=O)c2ccc(C)c(C)c2)cc1	inactive
COc1ccc(N(CN2C(=O)c3ccccc3C2=O)C(C)=O)cc1	inactive
Cc1ccccc1-c1nc(COc2ccccc2OCC(N)=O)c(C)o1	inconclusive: 15%
O=C1CC(c2ccc(Cl)cc2)CC2=C1C(c1ccccc1F)Nc1ccccc1N2 (centres undefined)	inconclusive: 20%
COc1ccccc1C(=O)N/C(=C\c1ccc2c(c1)OCO2)C(=O)NCCCO	inconclusive: 10%
Cc1noc(C)c1CN1CCOc2c(O)cc(-c3cccc(Cl)c3)cc2C1	inconclusive: 24%
COCCNC(=O)c1ccc2c(c1)NC(=O)C(N1CCCC1)S2 (centres undefined)	inconclusive: 15%
Cc1cccc(N2CCN(C(=O)/C=C3\Sc4ccccc4NC3=O)CC2C)c1 (centres undefined)	inconclusive: 29%
COc1cccc(OC)c1C(=O)Nc1ccccc1Br	inactive
CC(C)Cn1cc(C(=O)NCCCN2CCN(C)CC2)c2c3ccccc3n(C)c2c1=O	inactive
Cc1cccc(N2CCN(Cc3n[nH]c(=O)n3Cc3cccc(F)c3)CC2)c1C	inconclusive: 13%
Cc1ccc2ccc(C(Nc3ccccn3)c3cccc(O)c3)c(O)c2n1 (centres undefined)	inconclusive: 19%
COc1cc(/C(C#N)=C/c2cccc(Br)c2)c([N+](=O)[O-])cc1OC	inconclusive: 28%

An excerpt of these results, bar-delimited.
SMILES | inhibition
CC1CCCCN1S(=O)(=O)c1cc(Br)cc2c1N(C(=O)C1CC1)CC2 (centres undefined) | inactive
NC(=O)CSc1nc2c(sc3ccccc32)c(=O)n1CCc1c[nH]c2ccccc12 | inconclusive: 13%
CC(C)Cn1cc(C(=O)NCCCN2CCN(C)CC2)c2c3ccccc3n(C)c2c1=O | inactive
